Laboratory results as given in patent US10450260B2, “NO- and H2S-releasing compounds” (RESEARCH FOUNDATION OF THE CITY UNIVERSITY OF NEW YORK, priority 2011, dated 2019).

Key:
[1] = H2S release, polarographic sensor, homogenized mouse liver; conditions: 100 μM donor, real-time polarographic H2S sensor
[2] = H2S release, polarographic sensor, tissue culture media; conditions: real-time polarographic H2S sensor
[3] = system: HT-29 cells; test: NO release in culture medium of treated cells; type: cell-based, human; conditions: NOSH-1 50 nM

Structure (SMILES)	H2S release, Homogenized mouse liver [1]	H2S release, Tissue culture media [2]	NO release (total NO3−/NO2−) in culture medium ([3]; 24 hours) [µM]	concentration of NO in the medium compared to untreated cells ([3]; after 24 hours) [fold]	NO release (total NO3−/NO2−) in culture medium ([3]; first 15 minutes, base line 4.8 μM) [µM]	NO release (total NO3−/NO2−) in culture medium ([3]; peak at 6 hours) [µM]
CC(=O)Oc1ccccc1C(=O)Oc1ccc(-c2cc(=S)ss2)cc1 [HS-ASA, 4-(5-thioxo-5H-1,2-dithiol-3-yl)-phenyl 2-acetoxybenzoate, reference compound]	146 ± 15^a,c μmol/min/g wet weight	3.5 ± 1.1^c μmol/min				
O=C(CCCO[N+](=O)[O-])Oc1ccccc1C(=O)Oc1ccc(-c2cc(=S)ss2)cc1 [NOSH-1, 4-(3-thioxo-3H-1,2-dithiol-5-yl)phenyl 2-((4-(nitrooxy)butanoyl)oxy)benzoate]	57.3 ± 6.4^a,b μmol/min/g wet weight	8.7 ± 4.4^b μmol/min	29.1	6	13.3	40.1

Marks after values point to notes of the source that are not given here.
